In article PMC9547917:
These are yes or no findings as the source states them, for the method shown. Some binding calls cover weakened binding; strength is not graded here. Sequences can lack the tags named with a protein.

By UniProt entry, the sequences of proteins in these tests, tags left out.
UniProt Q05397: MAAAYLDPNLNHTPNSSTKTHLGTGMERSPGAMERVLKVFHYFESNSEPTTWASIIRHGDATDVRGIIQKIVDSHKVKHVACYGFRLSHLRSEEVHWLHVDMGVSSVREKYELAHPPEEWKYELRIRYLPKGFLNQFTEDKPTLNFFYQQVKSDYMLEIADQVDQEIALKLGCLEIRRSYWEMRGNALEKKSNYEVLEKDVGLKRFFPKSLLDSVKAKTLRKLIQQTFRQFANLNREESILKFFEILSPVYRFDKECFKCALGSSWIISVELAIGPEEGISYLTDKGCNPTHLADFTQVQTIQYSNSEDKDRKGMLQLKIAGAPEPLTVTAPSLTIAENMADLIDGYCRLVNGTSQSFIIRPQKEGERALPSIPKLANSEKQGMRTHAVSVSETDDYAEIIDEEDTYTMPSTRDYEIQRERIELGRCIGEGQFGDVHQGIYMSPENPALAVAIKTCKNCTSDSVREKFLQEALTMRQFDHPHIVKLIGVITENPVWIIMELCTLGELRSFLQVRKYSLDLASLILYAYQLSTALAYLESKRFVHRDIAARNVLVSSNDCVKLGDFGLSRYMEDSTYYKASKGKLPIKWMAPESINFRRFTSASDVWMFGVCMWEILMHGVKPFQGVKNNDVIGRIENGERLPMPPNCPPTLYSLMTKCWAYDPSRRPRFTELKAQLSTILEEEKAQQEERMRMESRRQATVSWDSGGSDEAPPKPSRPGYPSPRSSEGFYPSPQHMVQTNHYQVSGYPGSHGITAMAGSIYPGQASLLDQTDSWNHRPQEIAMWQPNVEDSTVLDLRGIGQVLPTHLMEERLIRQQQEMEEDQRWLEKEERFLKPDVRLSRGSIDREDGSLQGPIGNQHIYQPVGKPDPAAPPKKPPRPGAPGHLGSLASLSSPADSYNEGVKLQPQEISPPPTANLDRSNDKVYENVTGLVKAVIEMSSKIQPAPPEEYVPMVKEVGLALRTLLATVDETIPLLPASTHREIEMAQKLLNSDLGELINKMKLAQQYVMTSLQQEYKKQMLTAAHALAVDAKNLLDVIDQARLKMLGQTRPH

Molecular target: T1, GST-DUSP22 (not stated (human or mouse cDNA cloned)) (UniProt Q9NRW4)
T1 sequence: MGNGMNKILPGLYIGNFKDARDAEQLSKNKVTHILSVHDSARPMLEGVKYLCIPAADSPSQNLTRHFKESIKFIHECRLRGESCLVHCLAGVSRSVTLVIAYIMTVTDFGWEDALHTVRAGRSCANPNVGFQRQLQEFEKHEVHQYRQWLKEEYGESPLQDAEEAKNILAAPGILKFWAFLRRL
Assay: pull-down; GST-DUSP22 or GST-FAK from E. coli extracts on GST beads (4 °C, 1 h), then incubated 4 h with Flag-tagged FAK or Flag-tagged DUSP22 prepared by IP; eluate blotted with anti-Flag; GST alone as control; both purified

binding: binds
Substance: Flag-tagged FAK (from UniProt Q05397 1-1052)
